Measured values published in paper PMC9515611.
These are yes or no findings as the source states them, for the method shown. Binding seen in cells or lysates may run through a third protein. A yes stands for co-enrichment or nearness to the bait. Other partners may have been found. Where a sequence is shown, tags or fusion partners need not be part of it.

Protein sequences, listed by entry. Tags and fused reporters are not part of them. Residues count along the entry.
UniProt P11021, residues 19-654: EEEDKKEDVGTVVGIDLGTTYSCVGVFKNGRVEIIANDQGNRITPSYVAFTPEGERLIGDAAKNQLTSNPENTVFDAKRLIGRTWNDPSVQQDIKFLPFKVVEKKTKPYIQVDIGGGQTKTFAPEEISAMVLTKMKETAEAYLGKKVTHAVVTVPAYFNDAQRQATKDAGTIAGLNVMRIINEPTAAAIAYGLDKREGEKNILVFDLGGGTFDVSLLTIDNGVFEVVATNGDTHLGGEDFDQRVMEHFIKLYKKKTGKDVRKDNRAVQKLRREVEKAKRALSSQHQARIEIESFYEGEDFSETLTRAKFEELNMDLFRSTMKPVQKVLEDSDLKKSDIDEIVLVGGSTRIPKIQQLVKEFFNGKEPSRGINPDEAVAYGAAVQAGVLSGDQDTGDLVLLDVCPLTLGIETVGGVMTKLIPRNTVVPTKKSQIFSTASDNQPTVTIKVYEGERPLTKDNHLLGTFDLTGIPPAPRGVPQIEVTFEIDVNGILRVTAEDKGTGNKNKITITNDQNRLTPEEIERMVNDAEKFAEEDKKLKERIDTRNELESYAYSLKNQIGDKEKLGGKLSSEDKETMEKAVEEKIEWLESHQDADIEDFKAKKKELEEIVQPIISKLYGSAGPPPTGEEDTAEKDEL

Target: T1, DLC1-Flag (deleted in liver cancer-1), expressed in HEK-293T (human) (UniProt Q96QB1)
T1 sequence: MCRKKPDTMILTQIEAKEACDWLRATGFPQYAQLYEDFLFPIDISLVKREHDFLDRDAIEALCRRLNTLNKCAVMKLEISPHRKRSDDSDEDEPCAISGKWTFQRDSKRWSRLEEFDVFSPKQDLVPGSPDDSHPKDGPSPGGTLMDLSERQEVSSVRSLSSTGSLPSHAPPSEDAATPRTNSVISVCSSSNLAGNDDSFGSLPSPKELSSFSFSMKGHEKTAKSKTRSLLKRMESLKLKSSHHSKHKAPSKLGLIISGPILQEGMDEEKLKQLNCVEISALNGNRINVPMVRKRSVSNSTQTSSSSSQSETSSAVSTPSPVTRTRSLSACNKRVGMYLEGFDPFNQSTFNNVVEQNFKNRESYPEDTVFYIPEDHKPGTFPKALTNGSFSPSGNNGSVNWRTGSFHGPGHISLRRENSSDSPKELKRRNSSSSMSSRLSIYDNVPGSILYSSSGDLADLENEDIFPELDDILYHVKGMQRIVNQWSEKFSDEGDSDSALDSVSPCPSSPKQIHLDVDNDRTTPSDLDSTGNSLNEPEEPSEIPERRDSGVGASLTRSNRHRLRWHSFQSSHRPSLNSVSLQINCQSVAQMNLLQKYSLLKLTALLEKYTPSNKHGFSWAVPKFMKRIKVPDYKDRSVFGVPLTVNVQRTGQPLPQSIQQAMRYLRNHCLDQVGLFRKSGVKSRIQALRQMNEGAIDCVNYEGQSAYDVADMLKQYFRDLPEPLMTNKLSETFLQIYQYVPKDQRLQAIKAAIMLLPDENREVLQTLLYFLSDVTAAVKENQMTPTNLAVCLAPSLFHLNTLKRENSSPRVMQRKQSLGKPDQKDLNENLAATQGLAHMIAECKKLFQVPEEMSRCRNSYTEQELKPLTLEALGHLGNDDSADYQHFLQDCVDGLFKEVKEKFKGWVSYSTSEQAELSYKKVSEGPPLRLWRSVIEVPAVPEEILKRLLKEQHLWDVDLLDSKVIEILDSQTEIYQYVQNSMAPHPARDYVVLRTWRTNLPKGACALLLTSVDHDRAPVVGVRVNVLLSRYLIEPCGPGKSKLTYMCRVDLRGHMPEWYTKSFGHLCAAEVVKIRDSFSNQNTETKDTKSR
Experiment: affinity purification with mass spectrometry; cytoplasmic extracts of HEK-293T stably expressing DLC1-Flag, IP with anti-Flag M2 magnetic beads; specific band identified by MS

glucose-regulated protein 78 kDa (GRP78), endogenous in HEK-293T (from UniProt P11021 19-654)
binding: binds
